Laboratory results as given in paper PMC12406199, “NanoDSF Screening for Anti-tubulin Agents Uncovers New Structure–Activity Insights” (Journal of Medicinal Chemistry, 2025).

Test system: U87MG
Assay: cells
Design: MTT viability assay on U87MG glioblastoma cells
Conditions: Homo sapiens, U-87 MG, 72 h
Experimental: Glioblastoma cell culture routines, viability, and proliferation assays were performed as previously described. U87MG cells were maintained in complete MEM media supplemented with 10% FBS and 2 mM L-glutamine (Invitrogen, Paris, France). For cytotoxicity assays, cells were counted and plated in 96-well flat-bottom plates (50,000 cells/mL, 5000 cells per well). After 24 h, the cells were treated with increasing concentrations of the MTAs (0, 1, 5, 10, and 20–40 μM) in a vehicle solution, containing 0.05% DMSO. All concentrations were done in triplicates. The surviving cells were quantified after 72 h by the tetrazolium bromide MTT-assay, according to the manufacturer’s instructions. After cell lysis, the optical density was measured at 600 nm using a Multiskan MS Thermo plate reader (LabSystems, Waltham, MA, USA).

Question: With `COC(=O)C1=C(C)NC(C)=C(C(=O)OC)C1c1ccccc1[N+](=O)[O-]` [NFD, Nifedipine] as the compound, how does the IC50 read?
Answer: 40.4 ± 6.6 µM
